PubChem BioAssay AID652243 – Drosophila RNAi Screening Center, 2013
The screen tested about 24,000 reagents; below is a random part of those that have a named target and a result. Of all reagents, 246 (1%) got an active call. 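Plates not normalised; calls are printed but the firefly/Renilla ratio behind them is not deposited; fold cut for lowering reported inconsistently.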 The raw values are shown without normalisation. Entries without a mark were called inactive. No sequences are given here. The record does not give: the amount of reagent.

Aim: 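Knock-downs that decrease or increase androgen receptor reporter signal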 (primary screen)
System: Drosophila S2R+ cells
Reagent: long dsRNA against Drosophila genes
Duration: 72 h (48 h, then 24 h hormone)
Challenge: synthetic androgen R1881 at 10 nM for 24 h
Measurement: 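Per-well raw luminescence of the androgen-driven firefly reporter and of the Renilla control, two replicates each, without normalisation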
Direction: firefly reporter light: higher = more light from androgen-responsive reporter; Renilla control light: higher = more constitutive control signal (cell number, transfection)
Active means: 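Hit when the log firefly-to-Renilla ratio dropped or increased by a fixed fold versus the mean of GFP or LacZ controls across duplicate plates; lowering cut given as 1.5 and as 3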
Meaning of the calls: active = hit: reporter lowered or raised; inactive = no hit

For CG30110 [DRSC05686], the entry reads firefly reporter light, replicate 1 = 1.55e5; firefly reporter light, replicate 2 = 1.21e5; Renilla control light, replicate 1 = 4.52e5; Renilla control light, replicate 2 = 3.38e5.
rudhira [DRSC22111] scored firefly reporter light, replicate 1 = 5.18e5; firefly reporter light, replicate 2 = 5.97e5; Renilla control light, replicate 1 = 2.25e6; Renilla control light, replicate 2 = 1.70e6.
Silencing of rudhira [DRSC23144] gave: firefly reporter light, replicate 1 = 7.20e5; firefly reporter light, replicate 2 = 1.11e6; Renilla control light, replicate 1 = 1.81e6; Renilla control light, replicate 2 = 2.55e6.
For rudhira [DRSC24869], the values are firefly reporter light, replicate 1 = 1.07e6; firefly reporter light, replicate 2 = 1.23e6; Renilla control light, replicate 1 = 1.07e6; Renilla control light, replicate 2 = 1.59e6.

2 entries from above, reformatted:
{"predicted target":"rudhira","DRSC id":"DRSC23144","firefly reporter light, replicate 1":7.20e5,"firefly reporter light, replicate 2":1.11e6,"Renilla control light, replicate 1":1.81e6,"Renilla control light, replicate 2":2.55e6}
{"predicted target":"rudhira","DRSC id":"DRSC24869","firefly reporter light, replicate 1":1.07e6,"firefly reporter light, replicate 2":1.23e6,"Renilla control light, replicate 1":1.07e6,"Renilla control light, replicate 2":1.59e6}

Further results follow:
With knock-down of CG34220 [DRSC38611], the record shows firefly reporter light, replicate 1 = 7.10e5; firefly reporter light, replicate 2 = 6.58e5; Renilla control light, replicate 1 = 1.79e6; Renilla control light, replicate 2 = 1.95e6.
With knock-down of CG17684 [DRSC37825] the results were firefly reporter light, replicate 1 = 9.39e5; firefly reporter light, replicate 2 = 6.85e5; Renilla control light, replicate 1 = 1.49e6; Renilla control light, replicate 2 = 1.37e6.
Against Vha14-1 [DRSC07571], the entry reads firefly reporter light, replicate 1 = 36400; firefly reporter light, replicate 2 = 59593; Renilla control light, replicate 1 = 7.42e5; Renilla control light, replicate 2 = 7.42e5.
With knock-down of VhaPPA1-2 [DRSC16176] the results were firefly reporter light, replicate 1 = 2.06e5; firefly reporter light, replicate 2 = 2.25e5; Renilla control light, replicate 1 = 2.49e6; Renilla control light, replicate 2 = 3.25e6.
VhaPPA1-2 [DRSC25591] showed firefly reporter light, replicate 1 = 1.21e6; firefly reporter light, replicate 2 = 1.36e6; Renilla control light, replicate 1 = 1.28e6; Renilla control light, replicate 2 = 1.33e6.
CG32599 [DRSC19433] showed firefly reporter light, replicate 1 = 42187; firefly reporter light, replicate 2 = 49224; Renilla control light, replicate 1 = 4.01e5; Renilla control light, replicate 2 = 3.94e5.
After knock-down of CG32599 [DRSC26978], the record shows firefly reporter light, replicate 1 = 3.16e5; firefly reporter light, replicate 2 = 2.56e5; Renilla control light, replicate 1 = 8.26e5; Renilla control light, replicate 2 = 5.10e5.
Gr64a [DRSC21713] gave firefly reporter light, replicate 1 = 5.36e5; firefly reporter light, replicate 2 = 5.41e5; Renilla control light, replicate 1 = 2.53e6; Renilla control light, replicate 2 = 3.07e6.
